Reference: the supplement of paper PMC10849652
Some of the results follow.

Amino acid sequences for entries named in this document (tags omitted). A change or cut given only in a name is not applied to a line headed by its entry.
UniProt O75746: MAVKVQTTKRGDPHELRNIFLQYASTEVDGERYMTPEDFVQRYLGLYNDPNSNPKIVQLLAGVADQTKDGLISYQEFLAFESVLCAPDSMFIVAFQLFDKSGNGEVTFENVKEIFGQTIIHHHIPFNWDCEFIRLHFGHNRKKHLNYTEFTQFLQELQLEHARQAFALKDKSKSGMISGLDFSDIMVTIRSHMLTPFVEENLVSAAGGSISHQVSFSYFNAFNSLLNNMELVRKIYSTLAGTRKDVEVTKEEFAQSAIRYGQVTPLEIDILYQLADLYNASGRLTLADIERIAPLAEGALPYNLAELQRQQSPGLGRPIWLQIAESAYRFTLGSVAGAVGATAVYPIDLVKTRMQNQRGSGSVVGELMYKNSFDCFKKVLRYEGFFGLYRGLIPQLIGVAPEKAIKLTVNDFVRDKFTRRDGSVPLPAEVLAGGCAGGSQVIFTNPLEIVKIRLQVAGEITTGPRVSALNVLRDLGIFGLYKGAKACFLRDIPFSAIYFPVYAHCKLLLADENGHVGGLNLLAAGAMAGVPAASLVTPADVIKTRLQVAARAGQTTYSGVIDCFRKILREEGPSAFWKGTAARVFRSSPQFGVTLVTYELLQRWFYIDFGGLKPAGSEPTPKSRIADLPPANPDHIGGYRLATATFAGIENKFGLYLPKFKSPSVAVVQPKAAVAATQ
UniProt P11169: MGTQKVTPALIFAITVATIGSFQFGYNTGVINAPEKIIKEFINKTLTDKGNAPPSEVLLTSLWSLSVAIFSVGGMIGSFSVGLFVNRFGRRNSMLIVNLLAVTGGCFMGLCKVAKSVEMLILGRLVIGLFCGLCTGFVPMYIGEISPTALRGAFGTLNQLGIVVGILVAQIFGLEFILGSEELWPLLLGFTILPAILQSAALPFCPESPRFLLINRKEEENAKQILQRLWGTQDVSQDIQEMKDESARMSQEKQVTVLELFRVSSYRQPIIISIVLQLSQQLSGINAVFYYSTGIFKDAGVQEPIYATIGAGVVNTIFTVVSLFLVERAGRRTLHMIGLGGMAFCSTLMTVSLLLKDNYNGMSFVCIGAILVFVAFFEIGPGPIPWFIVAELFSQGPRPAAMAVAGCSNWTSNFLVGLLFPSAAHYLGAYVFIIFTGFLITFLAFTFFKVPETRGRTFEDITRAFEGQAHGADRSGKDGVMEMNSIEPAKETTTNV
UniProt Q86VD7: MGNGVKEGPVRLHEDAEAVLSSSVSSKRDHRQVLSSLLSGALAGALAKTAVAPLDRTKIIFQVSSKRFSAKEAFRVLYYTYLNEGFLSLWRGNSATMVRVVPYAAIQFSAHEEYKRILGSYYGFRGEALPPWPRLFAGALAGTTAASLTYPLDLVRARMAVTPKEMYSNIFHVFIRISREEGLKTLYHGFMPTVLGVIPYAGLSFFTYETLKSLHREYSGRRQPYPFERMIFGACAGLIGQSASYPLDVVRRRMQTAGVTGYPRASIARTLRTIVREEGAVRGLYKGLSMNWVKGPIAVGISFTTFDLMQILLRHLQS
UniProt P78382: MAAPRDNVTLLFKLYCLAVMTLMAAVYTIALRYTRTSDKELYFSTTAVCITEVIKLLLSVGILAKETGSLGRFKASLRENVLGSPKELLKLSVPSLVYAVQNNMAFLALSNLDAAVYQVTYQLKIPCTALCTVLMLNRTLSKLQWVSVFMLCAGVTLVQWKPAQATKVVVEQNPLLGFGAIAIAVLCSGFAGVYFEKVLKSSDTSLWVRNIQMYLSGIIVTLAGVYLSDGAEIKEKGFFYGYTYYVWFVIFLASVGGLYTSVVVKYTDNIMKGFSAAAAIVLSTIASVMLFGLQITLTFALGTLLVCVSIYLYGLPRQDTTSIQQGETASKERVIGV
UniProt Q9NVC3: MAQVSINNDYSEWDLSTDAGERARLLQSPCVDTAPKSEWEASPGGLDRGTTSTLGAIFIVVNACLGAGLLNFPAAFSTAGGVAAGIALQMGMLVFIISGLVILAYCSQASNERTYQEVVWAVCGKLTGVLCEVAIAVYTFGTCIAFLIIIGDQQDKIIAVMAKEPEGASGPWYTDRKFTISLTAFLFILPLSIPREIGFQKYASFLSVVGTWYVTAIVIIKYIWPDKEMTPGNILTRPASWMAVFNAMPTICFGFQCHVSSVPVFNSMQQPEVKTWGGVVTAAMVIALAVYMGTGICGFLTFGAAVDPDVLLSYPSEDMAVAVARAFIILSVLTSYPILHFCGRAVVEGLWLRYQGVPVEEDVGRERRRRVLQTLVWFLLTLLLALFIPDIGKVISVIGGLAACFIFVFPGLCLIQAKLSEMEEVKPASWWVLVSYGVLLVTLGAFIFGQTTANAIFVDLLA
UniProt Q9Y6M7: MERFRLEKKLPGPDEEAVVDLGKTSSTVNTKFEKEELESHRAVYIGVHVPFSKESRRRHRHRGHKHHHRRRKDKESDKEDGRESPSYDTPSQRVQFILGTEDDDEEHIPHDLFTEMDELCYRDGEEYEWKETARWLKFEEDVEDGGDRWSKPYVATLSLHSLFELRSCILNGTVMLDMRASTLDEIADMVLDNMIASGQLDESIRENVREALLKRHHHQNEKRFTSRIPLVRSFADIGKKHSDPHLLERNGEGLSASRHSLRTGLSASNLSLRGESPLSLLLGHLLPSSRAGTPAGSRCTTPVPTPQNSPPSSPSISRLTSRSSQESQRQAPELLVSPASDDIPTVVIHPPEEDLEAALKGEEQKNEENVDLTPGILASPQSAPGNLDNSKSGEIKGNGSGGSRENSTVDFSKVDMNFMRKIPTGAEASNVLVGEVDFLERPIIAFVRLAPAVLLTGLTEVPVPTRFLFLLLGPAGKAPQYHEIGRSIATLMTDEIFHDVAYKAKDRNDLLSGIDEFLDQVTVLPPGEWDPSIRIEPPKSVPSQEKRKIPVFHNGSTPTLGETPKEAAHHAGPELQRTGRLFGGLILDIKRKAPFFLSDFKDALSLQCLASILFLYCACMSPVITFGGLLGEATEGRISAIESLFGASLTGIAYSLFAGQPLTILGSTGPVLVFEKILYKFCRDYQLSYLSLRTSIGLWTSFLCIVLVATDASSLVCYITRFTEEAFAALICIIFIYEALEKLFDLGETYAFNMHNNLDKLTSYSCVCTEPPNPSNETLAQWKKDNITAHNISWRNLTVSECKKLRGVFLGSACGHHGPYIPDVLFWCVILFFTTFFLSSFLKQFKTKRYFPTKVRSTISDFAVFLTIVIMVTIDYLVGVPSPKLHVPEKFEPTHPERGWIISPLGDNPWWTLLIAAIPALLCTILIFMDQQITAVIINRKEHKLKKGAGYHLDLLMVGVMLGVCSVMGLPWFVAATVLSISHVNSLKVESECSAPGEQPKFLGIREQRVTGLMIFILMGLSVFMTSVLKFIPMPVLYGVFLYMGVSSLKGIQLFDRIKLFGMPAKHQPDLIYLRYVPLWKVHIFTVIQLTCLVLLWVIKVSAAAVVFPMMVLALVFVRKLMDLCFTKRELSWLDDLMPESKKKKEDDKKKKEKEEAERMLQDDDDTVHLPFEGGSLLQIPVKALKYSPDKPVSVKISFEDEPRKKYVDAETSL
UniProt Q96CQ1: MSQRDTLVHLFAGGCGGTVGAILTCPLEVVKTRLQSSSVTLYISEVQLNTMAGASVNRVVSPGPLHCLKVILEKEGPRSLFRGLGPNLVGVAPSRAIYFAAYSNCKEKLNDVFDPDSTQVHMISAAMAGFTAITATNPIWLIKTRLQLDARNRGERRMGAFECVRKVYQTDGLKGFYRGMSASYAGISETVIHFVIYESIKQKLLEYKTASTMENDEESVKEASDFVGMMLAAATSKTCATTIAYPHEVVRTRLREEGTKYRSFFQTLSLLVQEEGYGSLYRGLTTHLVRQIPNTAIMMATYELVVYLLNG
UniProt Q9UJS0: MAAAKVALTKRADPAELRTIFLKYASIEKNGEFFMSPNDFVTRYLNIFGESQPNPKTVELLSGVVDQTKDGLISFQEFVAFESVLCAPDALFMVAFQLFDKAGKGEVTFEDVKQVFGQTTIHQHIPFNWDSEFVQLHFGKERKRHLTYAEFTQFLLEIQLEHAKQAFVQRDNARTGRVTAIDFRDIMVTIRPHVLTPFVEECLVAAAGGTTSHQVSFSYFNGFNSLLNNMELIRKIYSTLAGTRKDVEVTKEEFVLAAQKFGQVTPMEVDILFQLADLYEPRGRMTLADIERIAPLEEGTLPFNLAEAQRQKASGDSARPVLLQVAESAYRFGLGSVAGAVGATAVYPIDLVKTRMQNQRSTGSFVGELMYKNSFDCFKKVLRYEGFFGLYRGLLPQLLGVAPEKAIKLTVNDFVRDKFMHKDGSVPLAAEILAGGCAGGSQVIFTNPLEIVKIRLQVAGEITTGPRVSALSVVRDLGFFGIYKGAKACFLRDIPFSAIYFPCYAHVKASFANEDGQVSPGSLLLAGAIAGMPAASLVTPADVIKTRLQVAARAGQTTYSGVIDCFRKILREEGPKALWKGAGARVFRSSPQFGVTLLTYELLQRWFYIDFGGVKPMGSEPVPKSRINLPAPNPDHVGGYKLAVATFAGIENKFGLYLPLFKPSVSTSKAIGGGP
UniProt Q92504: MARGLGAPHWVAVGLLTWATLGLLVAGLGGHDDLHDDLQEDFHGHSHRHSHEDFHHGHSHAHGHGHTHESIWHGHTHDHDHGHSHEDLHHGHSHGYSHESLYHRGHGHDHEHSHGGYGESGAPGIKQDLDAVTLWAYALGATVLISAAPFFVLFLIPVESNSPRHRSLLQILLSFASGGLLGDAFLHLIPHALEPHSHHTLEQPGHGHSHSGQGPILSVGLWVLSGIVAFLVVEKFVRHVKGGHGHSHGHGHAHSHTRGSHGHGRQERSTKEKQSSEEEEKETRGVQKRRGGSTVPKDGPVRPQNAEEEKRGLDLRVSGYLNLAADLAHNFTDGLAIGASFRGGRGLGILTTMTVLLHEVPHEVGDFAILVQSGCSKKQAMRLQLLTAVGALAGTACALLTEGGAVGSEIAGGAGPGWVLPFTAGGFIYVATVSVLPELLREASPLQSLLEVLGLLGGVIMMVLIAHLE
UniProt O14975, whole entry, looked up: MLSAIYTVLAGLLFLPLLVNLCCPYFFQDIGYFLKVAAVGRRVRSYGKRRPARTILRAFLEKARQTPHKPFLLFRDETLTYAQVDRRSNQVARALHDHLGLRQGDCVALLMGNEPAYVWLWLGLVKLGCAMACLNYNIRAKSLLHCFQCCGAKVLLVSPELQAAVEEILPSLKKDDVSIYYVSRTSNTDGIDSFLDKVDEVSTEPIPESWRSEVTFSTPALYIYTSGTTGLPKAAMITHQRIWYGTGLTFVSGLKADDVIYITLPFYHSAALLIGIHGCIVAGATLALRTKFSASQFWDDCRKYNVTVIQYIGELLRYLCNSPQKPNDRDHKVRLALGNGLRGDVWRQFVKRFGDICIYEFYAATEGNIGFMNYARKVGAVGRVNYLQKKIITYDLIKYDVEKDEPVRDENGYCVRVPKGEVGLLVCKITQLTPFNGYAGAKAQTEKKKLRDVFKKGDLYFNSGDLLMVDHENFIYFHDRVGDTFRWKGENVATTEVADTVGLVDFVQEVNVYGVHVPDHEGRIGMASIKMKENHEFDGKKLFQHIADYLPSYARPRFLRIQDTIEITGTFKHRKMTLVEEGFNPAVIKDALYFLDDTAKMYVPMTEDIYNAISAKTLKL
UniProt Q6PML9: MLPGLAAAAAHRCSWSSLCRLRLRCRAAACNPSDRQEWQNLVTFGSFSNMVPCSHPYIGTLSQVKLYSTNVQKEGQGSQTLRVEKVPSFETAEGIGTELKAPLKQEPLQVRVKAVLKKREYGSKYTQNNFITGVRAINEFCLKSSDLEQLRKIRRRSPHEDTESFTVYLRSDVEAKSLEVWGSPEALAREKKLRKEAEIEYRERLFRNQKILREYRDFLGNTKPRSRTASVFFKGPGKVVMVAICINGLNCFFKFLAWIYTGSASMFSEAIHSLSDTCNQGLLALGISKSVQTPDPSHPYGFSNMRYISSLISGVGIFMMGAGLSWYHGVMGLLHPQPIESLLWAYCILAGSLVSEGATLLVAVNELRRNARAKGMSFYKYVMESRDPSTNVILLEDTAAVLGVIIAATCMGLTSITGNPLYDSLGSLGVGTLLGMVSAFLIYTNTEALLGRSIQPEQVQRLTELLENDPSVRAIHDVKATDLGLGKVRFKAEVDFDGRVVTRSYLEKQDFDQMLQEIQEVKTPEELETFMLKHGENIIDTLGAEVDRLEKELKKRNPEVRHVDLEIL
UniProt O15431: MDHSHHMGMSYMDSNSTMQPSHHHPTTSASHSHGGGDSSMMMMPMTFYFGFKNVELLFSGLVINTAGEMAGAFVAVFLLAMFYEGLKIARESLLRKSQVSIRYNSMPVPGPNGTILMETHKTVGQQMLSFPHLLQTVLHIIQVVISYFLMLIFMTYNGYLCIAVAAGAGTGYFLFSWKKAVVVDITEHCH
UniProt Q9BRV3: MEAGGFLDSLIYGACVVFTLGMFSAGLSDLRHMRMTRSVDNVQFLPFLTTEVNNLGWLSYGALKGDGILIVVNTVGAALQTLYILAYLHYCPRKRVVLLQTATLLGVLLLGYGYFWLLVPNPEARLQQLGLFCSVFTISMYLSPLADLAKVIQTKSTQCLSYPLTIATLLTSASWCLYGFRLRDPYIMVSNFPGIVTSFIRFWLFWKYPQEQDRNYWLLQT

Tests used:
Experiment in all cases: log2 fold change, soluble protein after heating vs DMSO (PISA); higher = thermal stabilisation; K562 lysate, 10 uM; active = over 0.2 and 3.5 SD of the protein, either way, in both replicates (recomputed)
erlotinib = compound: C#Cc1cccc(Nc2ncnc3cc(OCCOC)c(OCCOC)cc23)c1 [erlotinib]
Method in brief: (§1)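 The values are log-two fold changes in thermal stability compared with solvent controls and come from duplicates. They were obtained by TMTpro 16plex LC-MS/MS, with channel sums equalised, on the supernatant after 21,000xg for 90 min. That supernatant came from crude K562 extract at 1 mg/mL protein treated with 10 μM compound for 30 min, heated for 3 min across 48°C-58°C, pooled and brought to 0.5% NP-40 at 4°C.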

[1] = compound: C/C(=N\NC(=O)C1=CC(=CC=C1)S(=O)(=O)N2CCOCC2)/C3=C(C=CC(=C3)Cl)O
Method in brief: as §1

[2] = compound: C1=CC(=CC=C1C2=NC3=C(N2)C=C(C=C3)C(=O)N)OC4=CC=C(C=C4)Cl
Method in brief: as §1

[3] = compound: C1=CC2=C(C=CC(=C2)/C=C\3/C(=O)NC(=NCC4=CC=CS4)S3)N=C1
Method in brief: as §1

[4] = compound: C1=CC2=NC=CN=C2C=C1/C=C/3\C(=O)NC(=O)S3
Method in brief: as §1

[5] = compound: C1=CC=C(C=C1)C2=NC(=C(N2)C3=CC=NC=C3)C4=CC(=C(C=C4)Cl)O
Method in brief: as §1

[6] = compound: C1=CC=C2C(=C1)C3=NNC4=CC=CC(=C43)C2=O
Method in brief: as §1

[7] = compound: C1CCN(C1)C(=O)NC2=CC=CC(=C2)NC3=NC=C(C(=N3)NCCC4=CN=CN4)Br
Method in brief: as §1

[8] = compound: C1CN(CCC1(CC2=CC=C(C=C2)Cl)N)C3=NC=NC4=C3C=CN4
Method in brief: as §1

IRAK-1-4 Inhibitor I = compound: C1COCCN1CCN2C3=CC=CC=C3N=C2NC(=O)C4=CC(=CC=C4)[N+](=O)[O-] [IRAK-1-4 Inhibitor I]
Method in brief: as §1

Measured: log2 fold change

SLC7A2 isoform 3 (UniProt P52569)
inactive: erlotinib 0.015 | [1] 0.217 | [2] 0.04 | [3] 0.148 | [4] -0.011 | [5] -0.034 | [6] 0.016 | [7] 0.167 | [8] -0.185 | IRAK-1-4 Inhibitor I 0.071

SLC25A12 (UniProt O75746)
inactive: erlotinib 0.014 | [1] 0.045 | [2] 0.012 | [3] -0.011 | [4] -0.012 | [5] -0.006 | [6] 0.009 | [7] -0.008 | [8] 0.004 | IRAK-1-4 Inhibitor I -0.012

SLC26A2 (UniProt P50443)
inactive: erlotinib -0.06 | [1] -0.007 | [2] -0.138 | [3] 0.04 | [4] 0.089 | [5] -0.164 | [6] 0.039 | [7] 0.019 | [8] 0.15 | IRAK-1-4 Inhibitor I 0.09

SMAP2 (UniProt Q8WU79)
inactive: erlotinib -0.009 | [1] -0.018 | [2] 0.073 | [3] 0 | [4] 0.023 | [5] -0.2 | [6] 0.015 | [7] 0.037 | [8] 0.023 | IRAK-1-4 Inhibitor I 0.044

SLC4A2 (UniProt P04920)
inactive: erlotinib -0.131 | [1] 0.038 | [2] 0.018 | [3] -0.032 | [4] 0.043 | [5] -0.083 | [6] 0 | [7] 0 | [8] 0.044 | IRAK-1-4 Inhibitor I 0.014

SLC29A1 isoform 2 (UniProt Q99808)
inactive: erlotinib 0.035 | [1] 0.011 | [2] -0.051 | [3] 0.033 | [4] 0.012 | [5] -0.026 | [6] -0.034 | [7] -0.053 | [8] 0.037 | IRAK-1-4 Inhibitor I 0.092

Quoted at random: three entries already listed, in no set order.
SLC26A2 (UniProt P50443)
inactive: erlotinib -0.06 | [1] -0.007 | [2] -0.138 | [3] 0.04 | [4] 0.089 | [5] -0.164 | [6] 0.039 | [7] 0.019 | [8] 0.15 | IRAK-1-4 Inhibitor I 0.09

SLC4A2 (UniProt P04920)
inactive: erlotinib -0.131 | [1] 0.038 | [2] 0.018 | [3] -0.032 | [4] 0.043 | [5] -0.083 | [6] 0 | [7] 0 | [8] 0.044 | IRAK-1-4 Inhibitor I 0.014

SLC25A12 (UniProt O75746)
inactive: erlotinib 0.014 | [1] 0.045 | [2] 0.012 | [3] -0.011 | [4] -0.012 | [5] -0.006 | [6] 0.009 | [7] -0.008 | [8] 0.004 | IRAK-1-4 Inhibitor I -0.012

Further entries.

SLC2A3 (UniProt P11169)
inactive: erlotinib -0.01 | [1] 0.038 | [2] -0.004 | [3] -0.001 | [4] 0.002 | [5] 0.036 | [6] -0.054 | [7] -0.013 | [8] 0.047 | IRAK-1-4 Inhibitor I 0.069

SLC25A42 (UniProt Q86VD7)
inactive: erlotinib 0.047 | [1] 0.008 | [2] -0.059 | [3] 0.028 | [4] -0.042 | [5] -0.025 | [6] -0.029 | [7] -0.012 | [8] 0.005 | IRAK-1-4 Inhibitor I 0.004

SLC35A1 (UniProt P78382)
inactive: erlotinib -0.262 | [1] -0.018 | [2] 0.272 | [3] -0.014 | [4] -0.048 | [6] -0.076

SLC48A1 (UniProt Q6P1K1)
inactive: erlotinib -0.109 | [1] -0.288 | [2] -0.027 | [3] -0.019 | [4] 0.056 | [5] -0.194 | [6] 0.154 | [7] -0.099 | [8] 0.087 | IRAK-1-4 Inhibitor I 0.023

SLC3A2 isoform 3 (UniProt P08195)
inactive: erlotinib -0.002 | [1] 0.018 | [2] 0.032 | [3] -0.012 | [4] -0.01 | [5] 0.013 | [6] 0.003 | [7] 0.015 | [8] 0.017 | IRAK-1-4 Inhibitor I 0.025

SLC25A30 (UniProt Q5SVS4)
inactive: erlotinib 0.01 | [1] -0.043 | [2] -0.042 | [3] 0.028 | [4] 0.007 | [5] -0.035 | [6] 0.054 | IRAK-1-4 Inhibitor I -0.041

SLC25A20 (UniProt O43772)
inactive: erlotinib 0.033 | [1] 0.095 | [2] -0.006 | [3] 0.021 | [4] -0.038 | [5] -0.017 | [6] -0.015 | [7] 0.014 | [8] -0.06 | IRAK-1-4 Inhibitor I 0.054

SLC35A3 isoform 2 (UniProt Q9Y2D2)
inactive: erlotinib -0.036 | [1] 0.057 | [2] 0.077 | [3] 0.001 | [5] -0.166 | [6] -0.006 | [7] -0.036 | [8] -0.002 | IRAK-1-4 Inhibitor I 0.164

SLC38A7 (UniProt Q9NVC3)
inactive: erlotinib -0.05 | [1] -0.022 | [2] 0.047 | [3] 0.023 | [4] 0.043 | [6] -0.058 | [7] 0.044 | [8] 0.052

SLC29A2 (UniProt Q14542)
inactive: erlotinib -0.147 | [1] 0.016 | [2] -0.04 | [3] 0.013 | [4] -0.028 | [5] -0.033 | [6] 0.018 | [7] 0.018 | [8] 0.085 | IRAK-1-4 Inhibitor I 0.102

SLC4A7 isoform 7 (UniProt Q9Y6M7)
inactive: erlotinib -0.035 | [1] -0.042 | [2] -0.004 | [3] -0.002 | [4] -0.005 | [5] -0.042 | [6] 0.041 | [7] 0.018 | [8] -0.007 | IRAK-1-4 Inhibitor I 0.039

SLC5A3 (UniProt P53794)
inactive: erlotinib 0.069 | [1] -0.008 | [2] 0.013 | [3] -0.036 | [4] -0.003 | [5] 0.025 | [6] -0.011 | [7] 0.005 | [8] -0.026 | IRAK-1-4 Inhibitor I 0.05

SLC7A6OS (UniProt Q96CW6)
inactive: erlotinib -0.018 | [1] 0.03 | [2] -0.006 | [3] 0.001 | [4] -0.047 | [5] 0.036 | [6] -0.004 | [7] 0.016 | [8] 0.036 | IRAK-1-4 Inhibitor I 0.005

SLC25A36 (UniProt Q96CQ1)
inactive: erlotinib -0.021 | [1] 0.024 | [2] 0.08 | [3] -0.129 | [5] 0.041 | [6] 0.027 | [7] -0.027 | [8] -0.026 | IRAK-1-4 Inhibitor I 0.038

SLC22A5 isoform 3 (UniProt O76082)
inactive: erlotinib 0.259 | [1] -0.145 | [2] 0.055 | [3] -0.034 | [4] 0.028 | [5] 0.239 | [6] 0.042 | IRAK-1-4 Inhibitor I -0.188

SLC25A13 isoform 2 (UniProt Q9UJS0)
inactive: erlotinib 0.009 | [1] -0.009 | [2] 0.027 | [3] 0.032 | [4] 0.03 | [5] 0.013 | [6] 0.015 | [7] -0.004 | [8] 0.009 | IRAK-1-4 Inhibitor I 0.005

SLC39A7 (UniProt Q92504)
inactive: erlotinib 0.009 | [1] 0.038 | [2] 0.043 | [3] -0.049 | [4] -0.003 | [5] -0.043 | [6] -0.062 | [7] 0.01 | [8] 0.003 | IRAK-1-4 Inhibitor I 0.006

SLC27A2 (UniProt O14975)
inactive: erlotinib -0.025 | [2] -0.122 | [3] 0.099 | [4] 0.048 | [5] 0.007 | [6] -0.016 | [7] -0.038 | [8] -0.035
active: [1] 0.478 | IRAK-1-4 Inhibitor I 0.614

SLC25A1 (UniProt P53007)
inactive: erlotinib 0.053 | [1] 0.031 | [2] 0.057 | [3] 0.037 | [4] 0 | [5] 0.033 | [6] 0.013 | [7] -0.01 | [8] -0.01 | IRAK-1-4 Inhibitor I -0.005

SLC40A1 (UniProt Q9NP59)
inactive: erlotinib 0.188 | [1] -0.035 | [2] 0.233 | [3] 0.042 | [5] -0.052 | [6] -0.122 | [7] -0.015 | [8] 0.05 | IRAK-1-4 Inhibitor I 0.048

SLC38A6 isoform 2 (UniProt Q8IZM9)
inactive: erlotinib 0.07 | [1] -0.086 | [2] 0.05 | [3] 0.075 | [6] -0.118

SLC30A9 (UniProt Q6PML9)
inactive: erlotinib -0.023 | [1] 0.039 | [2] -0.17 | [3] -0.079 | [4] 0.017 | [5] -0.012 | [6] -0.023 | [7] -0.056 | [8] 0.1 | IRAK-1-4 Inhibitor I -0.005

SLC39A8 (UniProt Q9C0K1)
inactive: erlotinib -0.039 | [1] -0.3 | [2] -0.013 | [3] 0.124 | [5] 0.01 | [6] 0.003 | [7] -0.067 | [8] 0.036 | IRAK-1-4 Inhibitor I -0.004

SLC31A1 (UniProt O15431)
inactive: erlotinib 0.062 | [1] -0.188 | [2] 0.076 | [3] 0.023 | [4] 0.052 | [5] -0.036 | [6] -0.155 | IRAK-1-4 Inhibitor I 0.027

SLC66A3 (UniProt Q8N755)
inactive: [1] 0.302 | [3] -0.369 | [6] 0.123

SMAD3 (UniProt P84022)
inactive: [5] 0.034 | IRAK-1-4 Inhibitor I -0.143

SLC50A1 (UniProt Q9BRV3)
inactive: erlotinib -0.004 | [2] 0.175 | [5] -0.152 | IRAK-1-4 Inhibitor I -0.009

SLC44A1 (UniProt Q8WWI5)
inactive: [5] -0.251 | IRAK-1-4 Inhibitor I -0.034
